# Experimental data published in article PMC8406723.
# Sequences of proteins named here, by UniProt entry; tags and fusion partners are left off. A change or cut given only in a name is not applied to a line headed by its entry.
# UniProt P61956: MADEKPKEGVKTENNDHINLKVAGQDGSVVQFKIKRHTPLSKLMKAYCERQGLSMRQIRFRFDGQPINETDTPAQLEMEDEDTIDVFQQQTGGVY
# UniProt P11166: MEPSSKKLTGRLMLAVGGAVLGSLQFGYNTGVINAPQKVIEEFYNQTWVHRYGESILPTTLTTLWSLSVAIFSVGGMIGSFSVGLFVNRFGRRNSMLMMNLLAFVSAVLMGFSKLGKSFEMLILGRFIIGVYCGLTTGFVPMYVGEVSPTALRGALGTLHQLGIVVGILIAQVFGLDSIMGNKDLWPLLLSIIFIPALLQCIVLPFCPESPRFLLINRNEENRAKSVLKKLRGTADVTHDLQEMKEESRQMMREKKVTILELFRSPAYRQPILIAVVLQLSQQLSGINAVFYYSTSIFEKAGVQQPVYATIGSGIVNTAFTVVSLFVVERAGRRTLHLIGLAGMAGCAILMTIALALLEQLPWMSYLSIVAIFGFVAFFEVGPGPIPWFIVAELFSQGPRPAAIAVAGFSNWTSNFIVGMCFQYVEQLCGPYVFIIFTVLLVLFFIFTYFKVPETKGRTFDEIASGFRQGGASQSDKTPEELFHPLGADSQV
# Key:
# [1] = target: HA-SUMO2 (Small Ubiquitin-like Modifier 2) (UniProt P61956); assay: co-IP; anti-HA (SUMO2) antibody on protein A/G magnetic beads; lysates of HNE2 and CNE2 cells transfected with HA-SUMO2 vector; GLB+ lysis buffer (150 mM NaCl, 10 mM Tris-HCl pH 7.5, 0.5% Triton X-100, 10 mM EDTA pH 8.0), 4 °C overnight; western blotting with anti-GLUT1 and anti-UBC9
# [2] = target: Flag-GLUT1 (Glucose transporter type 1) (UniProt P11166); assay: co-IP; anti-Flag (GLUT1) antibody on protein A/G magnetic beads; lysates of HNE2 and CNE2 cells transfected with Flag-GLUT1 vector; GLB+ lysis buffer (150 mM NaCl, 10 mM Tris-HCl pH 7.5, 0.5% Triton X-100, 10 mM EDTA pH 8.0), 4 °C overnight; western blotting with anti-SUMO2 and anti-UBC9
Substance,binding [1],binding [2]
"Glucose transporter type 1 (GLUT1), endogenous (from UniProt P11166 1-492)",binds,
"Small Ubiquitin-like Modifier 2 (SUMO2), endogenous (from UniProt P61956)",,binds

# These are yes or no findings as the source states them, for the method shown. In cells and extracts the contact can be indirect. Binding calls can cover weak binding; strength is not graded here.
